In the supplement of paper PMC5355238:
Structures can show the parent of a compound that is named as a salt. This is one part of the list. Repeats are few or missing, and single values can be far off.

System: Reh
Assay: S-phase gammaH2AX median, Z-score vs plate median (drug alone); higher = more S-phase DNA damage
Settings: MK1775 concentration 0 nM; 10 µM; 4 h

Row | Compound | S-phase gammaH2AX median (Z-score)
1 | O=C(O)c1cc(=O)cc(C(=O)O)[nH]1 [Chelidamic acid] | -0.0194
2 | CNC(=O)c1cc(Oc2ccc(NC(=O)Nc3cc(C(C)(C)C)nn3-c3ccc4ncccc4c3)c(F)c2)ccn1 [DCC-2036 (Rebastinib)] | -0.102
3 | C/C=C1\C(=O)C[C@H]2[C@@H]3CCC4=CC(=O)CC[C@]4(C)[C@H]3CC[C@]12C [(Z)-Gugglesterone] | -0.0567
4 | CC(C)C[C@H](NC(=O)[C@H](O)[C@H](N)Cc1ccccc1)C(=O)O [Epibestatin hydrochloride] | -0.0441
5 | CNC(=O)c1cc(Oc2ccc(NC(=O)Nc3ccc(Cl)c(C(F)(F)F)c3)c(F)c2)ccn1 [Regorafenib (BAY 73-4506)] | -0.0677
6 | O=C(Nc1ccccc1-c1cn2c(CN3CCNCC3)csc2n1)c1cnc2ccccc2n1 | -0.205
7 | COc1ccc2c(c1OC)C(=O)O[C@@H]2[C@H]1c2c(cc3c(c2OC)OCO3)CCN1C [Noscapine hydrchloride] | -0.132
8 | CCCCCCCCCCCCCCCC(=O)OC(CC(=O)O)C[N+](C)(C)C (racemic) [Palmitoyl-DL-Carnitine chloride] | -0.168
9 | C=CCc1cccc(/C=N/NC(=O)CN2CCN(Cc3ccccc3)CC2)c1O | 1.09
10 | O=C(O)C1CCCNC1 (centres undefined) [(?)-Nipecotic acid] | -0.0252
11 | CC(Oc1ccc(Oc2cnc3ccc(Cl)cc3n2)cc1)C(=O)O (centres undefined) | 5.87
12 | CN(C)C(=O)C(CCN1CCC(O)(c2ccc(Cl)cc2)CC1)(c1ccccc1)c1ccccc1 [Loperamide hydrochloride] | -0.11
13 | N=C(N)NCCSSCCNC(=N)N [Guanidinoethyl disulfide dihydrobromide] | 0.139
14 | CC[N+](CC)(CC)CCOc1ccc(/C=C/c2ccccc2)cc1 | -0.0118
15 | COc1cc2c(N3CCN(C(=O)Nc4ccc(OC(C)C)cc4)CC3)ncnc2cc1OCCCN1CCCCC1 [Tandutinib (MLN518)] | -0.112
16 | Cc1cc(O)c2c(c1)C(=O)c1cccc(O)c1C2=O [Chrysophanic acid (Chrysophanol)] | 0.23
17 | COc1cc(C(=O)NC(=S)Nc2cccc(NC(=O)c3ccccc3)c2)cc(OC)c1OC | -0.0653
18 | NC(N)=NC(N)=Nc1cccc(Cl)c1 [1-(m-Chlorophenyl)-biguanide hydrochloride] | 0.0505
19 | CCOc1ccc(Nc2nc(-c3c(C)nc4ccccn34)cs2)cc1 | -0.106
20 | NC[C@@H]1O[C@H](O[C@H]2[C@@H](O)[C@H](O[C@@H]3[C@@H](O)[C@H](N)C[C@H](N)[C@H]3O[C@H]3O[C@H](CO)[C@@H](O)[C@H](O)[C@H]3N)O[C@@H]2CO)[C@H](N)[C@@H](O)[C@@H]1O [Paromomycin sulfate] | 0.201
21 | CC[C@]1(O)C[C@H]2CN(CCc3c([nH]c4ccccc34)[C@@](C(=O)OC)(c3cc4c(cc3OC)N(C=O)[C@H]3[C@@](O)(C(=O)OC)[C@H](OC(C)=O)[C@]5(CC)C=CCN6CC[C@]43[C@@H]65)C2)C1 [Vincristine] | 0.191
22 | CC[C@]1(O)C[C@H]2CN(CCc3c([nH]c4ccccc34)[C@@](C(=O)OC)(c3cc4c(cc3OC)N(C=O)[C@H]3[C@@](O)(C(=O)OC)[C@H](OC(C)=O)[C@]5(CC)C=CCN6CC[C@]43[C@@H]65)C2)C1 [Vincristine sulfate] | 0.194

Single values from the entries so far:
Under S-phase gammaH2AX median (Z-score), N=C(N)NCCSSCCNC(=N)N [Guanidinoethyl disulfide dihydrobromide] has the entry 0.139
Under S-phase gammaH2AX median (Z-score), COc1cc2c(N3CCN(C(=O)Nc4ccc(OC(C)C)cc4)CC3)ncnc2cc1OCCCN1CCCCC1 [Tandutinib (MLN518)] has the entry -0.112
Under S-phase gammaH2AX median (Z-score), CC[C@]1(O)C[C@H]2CN(CCc3c([nH]c4ccccc34)[C@@](C(=O)OC)(c3cc4c(cc3OC)N(C=O)[C@H]3[C@@](O)(C(=O)OC)[C@H](OC(C)=O)[C@]5(CC)C=CCN6CC[C@]43[C@@H]65)C2)C1 [Vincristine] has the entry 0.191

(listing goes on)

Row | Compound | S-phase gammaH2AX median (Z-score)
23 | Cc1cccc(C)c1OCC(C)N (centres undefined) [Mexiletene hydrochloride] | 0.0189
24 | CN[C@@H](C)C(=O)N[C@H]1CN(C(=O)CC(C)C)CC[C@H]2CC[C@@H](C(=O)NC(c3ccccc3)c3ccccc3)N2C1=O | -0.0769
25 | COc1ccccc1N1CCN(CCCCN2C(=O)c3ccccc3C2=O)CC1 [NAN-190 hydrobromide] | -0.173
26 | Oc1ccc(/C=C/c2cc(O)cc(O)c2)cc1 [Resveratrol] | -0.215
27 | CCN(CC)CCNC(=O)c1c(C)[nH]c(/C=C2\C(=O)Nc3ccc(F)cc32)c1C [Sunitinib Malate (Sutent)] | -0.0336
28 | COc1ccc(/C=C/C(=O)Nc2ccccc2C(=O)O)cc1OC [Tranilast] | -0.447
29 | CCOc1cc2ncc(C#N)c(Nc3ccc(F)c(Cl)c3)c2cc1NC(=O)/C=C/CN(C)C [Pelitinib (EKB-569)] | 0.454
30 | CCCc1c(-c2ccc(O)cc2)nn(-c2ccc(O)cc2)c1-c1ccc(O)cc1 [1,3,5-tris(4-hydroxyphenyl)-4-propyl-1H-pyrazole] | 0.0598
31 | N#C/C(=C\c1c[nH]c2ccccc12)C(=O)c1ccc(O)c(O)c1 [Tyrphostin AG 808] | -0.507
32 | Cn1cnc2c1c(=O)[nH]c(=O)n2C [Theobromine] | 0.16
33 | NCCCNCCCCNCCCN [Spermine tetrahydrochloride] | -0.0868
34 | CCN(CC)CCNC(=O)c1cc(Cl)c(N)cc1OC [Metoclopramide hydrochloride] | 0.00946
35 | CN(C)C/C=C(/c1ccc(Br)cc1)c1cccnc1 [Zimelidine dihydrochloride] | -0.714
36 | NC/C=C/C(=O)O [(E)-4-amino-2-butenoic acid] | 0.0267
37 | CCN(CC)CCOC(=O)c1cc(Cl)c(N)cc1OC [SDZ-205,557 hydrochloride] | -0.113
38 | CC(=O)N[C@@H](Cc1c[nH]c2ccccc12)C(=O)OCc1cc(C(F)(F)F)cc(C(F)(F)F)c1 | -0.0388
39 | CO[C@H]1/C=C\C=C(/C)C(=O)NC2=CC(=O)C(NCCN(C)C)=C(C[C@@H](C)C[C@H](OC)[C@H](O)[C@@H](C)/C=C(\C)[C@@H]1OC(N)=O)C2=O [17-DMAG HCl (Alvespimycin)] | -0.0622
40 | CN(C)CCC=C1c2ccccc2COc2ccccc21 [Doxepin hydrochloride] | -0.00945
41 | CC(C)[N+](C)(CCOC(=O)C1c2ccccc2Oc2ccccc21)C(C)C [Propantheline bromide] | 0.0639
42 | CCN(c1nc(N)c(C(=O)NC(=N)N)nc1Cl)C(C)C [5-(N-Ethyl-N-isopropyl)amiloride] | 0.691
43 | O=C(O)Cc1c[nH]c2ccc(O)cc12 [5-Hydroxyindolacetic acid] | -0.11
44 | C[S+]([O-])c1ccc(-c2nc(-c3ccc(F)cc3)c(-c3ccncc3)[nH]2)cc1 (centres undefined) | -0.0205
